Test [1] addresses HA-tagged PPARγ2 (peroxisome proliferator-activated receptor gamma 2) (UniProt P37238). Briefly: co-IP; HEK293T cells transfected (PEI) with FLAG-tagged and HA-tagged proteins; lysed in IP buffer (20 mM Tris pH 7.5, 150 mM NaCl, 1 mM EDTA, 1 mM EGTA, 2.5 mM sodium pyrophosphate, 1% Triton); anti-Flag or anti-HA affinity gel, Western blot; in Figure 6C with or without co-expressed SOX4 and with or without 1 μM rosiglitazone for 4 hr; in Figure S10 with overexpressed SOX4.

Chains of the proteins cited; added tags and fusions are not shown.
UniProt P37238: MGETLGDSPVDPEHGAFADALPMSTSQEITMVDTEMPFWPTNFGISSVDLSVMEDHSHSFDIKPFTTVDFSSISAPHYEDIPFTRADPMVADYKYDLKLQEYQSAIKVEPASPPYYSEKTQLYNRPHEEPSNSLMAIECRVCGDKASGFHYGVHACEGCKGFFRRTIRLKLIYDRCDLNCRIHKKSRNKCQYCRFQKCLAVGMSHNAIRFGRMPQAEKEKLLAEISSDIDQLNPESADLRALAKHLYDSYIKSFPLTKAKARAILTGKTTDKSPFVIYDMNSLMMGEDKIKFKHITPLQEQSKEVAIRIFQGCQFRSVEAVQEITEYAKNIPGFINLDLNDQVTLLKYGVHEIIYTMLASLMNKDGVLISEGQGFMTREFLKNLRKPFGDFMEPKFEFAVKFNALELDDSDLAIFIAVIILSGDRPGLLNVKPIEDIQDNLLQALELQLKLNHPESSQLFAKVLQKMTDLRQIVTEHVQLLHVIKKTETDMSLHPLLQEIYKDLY
UniProt Q06831: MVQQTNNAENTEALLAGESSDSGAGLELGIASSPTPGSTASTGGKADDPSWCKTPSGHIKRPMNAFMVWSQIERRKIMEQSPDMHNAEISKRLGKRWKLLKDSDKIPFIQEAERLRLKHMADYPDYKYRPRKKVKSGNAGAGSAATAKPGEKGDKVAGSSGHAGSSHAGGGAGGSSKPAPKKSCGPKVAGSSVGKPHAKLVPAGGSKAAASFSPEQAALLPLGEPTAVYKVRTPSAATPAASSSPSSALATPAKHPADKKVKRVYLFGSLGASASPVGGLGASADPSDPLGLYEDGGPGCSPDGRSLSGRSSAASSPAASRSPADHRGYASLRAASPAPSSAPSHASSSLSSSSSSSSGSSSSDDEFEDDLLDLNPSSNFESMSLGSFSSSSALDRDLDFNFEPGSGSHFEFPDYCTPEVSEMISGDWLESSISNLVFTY
UniProt A2A935: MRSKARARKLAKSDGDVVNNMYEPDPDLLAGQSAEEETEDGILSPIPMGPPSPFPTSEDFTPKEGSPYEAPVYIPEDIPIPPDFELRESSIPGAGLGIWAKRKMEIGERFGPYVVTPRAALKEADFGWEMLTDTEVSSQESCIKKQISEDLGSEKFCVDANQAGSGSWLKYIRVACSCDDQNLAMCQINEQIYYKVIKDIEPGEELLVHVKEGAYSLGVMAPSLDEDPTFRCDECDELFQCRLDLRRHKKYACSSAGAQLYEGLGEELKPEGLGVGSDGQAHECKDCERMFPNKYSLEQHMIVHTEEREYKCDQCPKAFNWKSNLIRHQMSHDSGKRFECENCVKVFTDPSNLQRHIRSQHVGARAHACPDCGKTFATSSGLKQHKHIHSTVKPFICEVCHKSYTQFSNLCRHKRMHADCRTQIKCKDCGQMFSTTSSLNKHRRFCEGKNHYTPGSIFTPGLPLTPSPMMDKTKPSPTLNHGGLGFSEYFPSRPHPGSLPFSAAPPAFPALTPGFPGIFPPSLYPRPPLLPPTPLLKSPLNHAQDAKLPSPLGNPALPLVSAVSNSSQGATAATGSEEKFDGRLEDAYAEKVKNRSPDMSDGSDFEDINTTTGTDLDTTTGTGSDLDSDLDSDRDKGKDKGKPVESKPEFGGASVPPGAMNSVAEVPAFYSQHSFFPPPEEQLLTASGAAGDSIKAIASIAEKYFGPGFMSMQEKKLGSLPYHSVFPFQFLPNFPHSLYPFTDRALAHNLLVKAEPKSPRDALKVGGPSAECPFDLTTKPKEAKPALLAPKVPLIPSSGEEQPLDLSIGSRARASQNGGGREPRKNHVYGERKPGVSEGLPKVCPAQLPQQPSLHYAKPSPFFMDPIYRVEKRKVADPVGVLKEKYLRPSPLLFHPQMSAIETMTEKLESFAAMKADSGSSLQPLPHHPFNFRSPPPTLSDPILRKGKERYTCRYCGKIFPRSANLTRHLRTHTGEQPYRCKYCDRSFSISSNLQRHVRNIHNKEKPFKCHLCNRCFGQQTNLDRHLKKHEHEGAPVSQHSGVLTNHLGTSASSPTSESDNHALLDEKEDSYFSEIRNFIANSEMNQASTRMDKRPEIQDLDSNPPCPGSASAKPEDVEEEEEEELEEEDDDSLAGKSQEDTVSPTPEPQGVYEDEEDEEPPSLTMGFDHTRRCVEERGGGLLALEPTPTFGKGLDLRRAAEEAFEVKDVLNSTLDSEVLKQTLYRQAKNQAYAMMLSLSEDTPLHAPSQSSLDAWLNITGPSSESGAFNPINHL

Test [2] deals with endogenous PPARγ (peroxisome proliferator-activated receptor gamma) (mouse (endogenous in beige adipocytes from mouse iWAT SVF cells and in mouse iWAT)) (UniProt P37238). Briefly: co-IP; Endogenous proteins: lysates of beige adipocytes differentiated from immortalized SVF cells, or of mouse iWAT, incubated overnight with anti-PPARγ antibody cross-linked to protein A/G magnetic beads; IgG control; Western blot. Figure 6E: with Vector or Sox4-expression adenovirus. Figure 6F: iWAT of cold-exposed control and SOX4 AKO mice. In general terms: A western blot detects proteins with antibodies after separation by electrophoresis.

Test [3] concerns the target FLAG-tagged SOX4 (transcription factor SOX-4) (UniProt Q06831). Briefly: co-IP; HEK293T cells transfected (PEI) with FLAG-tagged and HA-tagged proteins; lysed in IP buffer (20 mM Tris pH 7.5, 150 mM NaCl, 1 mM EDTA, 1 mM EGTA, 2.5 mM sodium pyrophosphate, 1% Triton); anti-Flag or anti-HA affinity gel, Western blot; in Figure 6C with or without co-expressed SOX4 and with or without 1 μM rosiglitazone for 4 hr; in Figure S10 with overexpressed SOX4.

Test [4] concerns the target PPARγ2 as used in the Co-IP with PGC-1α (Figure S10) (UniProt P37238). The description is as above.

These are yes or no findings as the source states them, for the method shown. In cells and extracts the contact can be indirect. Some entries that bind do so weakly or less than the wild type.

The results in this text go back to PMC9706582.

Turning to “FLAG-tagged SOX4 (transcription factor SOX-4) (from UniProt Q06831 1-440)”, in test [1], the binding result is “binds”. As for “endogenous SOX4 (transcription factor SOX-4) (from UniProt Q06831 1-440)”, in test [2], the binding result is reported as “binds”. On to “HA-PRDM16 (histone-lysine N-methyltransferase PRDM16) (from UniProt A2A935 1-1275)”, for which the binding entry in test [3] was “binds”.

B1: PGC-1α (PPARγ coactivator-1α) (protein, UniProt O70343 1-797)
chain: MAWDMCSQDSVWSDIECAALVGEDQPLCPDLPELDLSELDVNDLDTDSFLGGLKWCSDQSEIISNQYNNEPANIFEKIDEENEANLLAVLTETLDSLPVDEDGLPSFDALTDGAVTTDNEASPSSMPDGTPPPQEAEEPSLLKKLLLAPANTQLSYNECSGLSTQNHAANHTHRIRTNPAIVKTENSWSNKAKSICQQQKPQRRPCSELLKYLTTNDDPPHTKPTENRNSSRDKCASKKKSHTQPQSQHAQAKPTTLSLPLTPESPNDPKGSPFENKTIERTLSVELSGTAGLTPPTTPPHKANQDNPFKASPKLKPSCKTVVPPPTKRARYSECSGTQGSHSTKKGPEQSELYAQLSKSSGLSRGHEERKTKRPSLRLFGDHDYCQSLNSKTDILINISQELQDSRQLDFKDASCDWQGHICSSTDSGQCYLRETLEASKQVSPCSTRKQLQDQEIRAELNKHFGHPCQAVFDDKSDKTSELRDGDFSNEQFSKLPVFINSGLAMDGLFDDSEDESDKLSYPWDGTQPYSLFDVSPSCSSFNSPCRDSVSPPKSLFSQRPQRMRSRSRSFSRHRSCSRSPYSRSRSRSPGSRSSSRSCYYYESSHYRHRTHRNSPLYVRSRSRSPYSRRPRYDSYEAYEHERLKRDEYRKEHEKRESERAKQRERQKQKAIEERRVIYVGKIRPDTTRTELRDRFEVFGEIEECTVNLRDDGDSYGFITYRYTCDAFAALENGYTLRRSNETDFELYFCGRKQFFKSNYADLDTNSDDFDPASTKSKYDSLDFDSLLKEAQRSLRR
As to B1, the binding result in test [4] is recorded as “binds”.
